Results: article PMC8169668, “Discovery of a cooperative mode of inhibiting RIPK1 kinase” (Cell Discovery, 2021)
These are yes or no findings as the source states them, for the method shown. Binding seen in cells or lysates may run through a third protein. Some entries that bind do so weakly or less than the wild type.

Amino acid sequences for entries named in this document (tags omitted). Residues count along the entry.
UniProt P01375, residues 77-233: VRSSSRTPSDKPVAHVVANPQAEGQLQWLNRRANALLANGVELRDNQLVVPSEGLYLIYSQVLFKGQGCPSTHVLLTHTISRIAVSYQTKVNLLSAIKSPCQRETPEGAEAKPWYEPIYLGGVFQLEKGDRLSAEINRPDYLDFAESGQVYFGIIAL

B1: TRADD, mouse (protein, UniProt Q3U0V2 1-310)
chain: MAAGQNGHEEWVGSAYLFLESAVDKVILSEAYTDPKKKVAIYKALQTALSESGDSSDVLQILKIHCSDPQLIVQLRFCGRVLCGRFLQAYREGALRTALQRCMAPALAQEALRLQLELRAGAEQLDSWLTDEERCLNYILAQKPDRLRDEELAELEDELCKLTCDCTGQGGAIQVASAGSKFPVSSPTEEKPLPAACQTFLFHGQLVVNRPLTLQDQQTFARSVGLKWRRVGRSLQRNCRALRDPALDSLAYEYERDGLYEQAFQLLRRFMQAEGRRATLQRLVEALEENELTSLAEDLLGQAEPDGGLA
B2: Sharpin, mouse (protein, UniProt Q91WA6 1-380)
chain: MSPPAGGAAVAADPASPVVLLAVHAAVRPLGAGQDAEAQPRKLQLIADPERPGRFRLGLLGTEPGAVSLEWPLEAICYTVRGPNQHELQPPPGGPGTFSVHFLDPEEAQQWAALVRDATAEGQNGSGSPAPAPAPAMCPISPPCSSMAQIPKATQPEVDLPQSSGNFKKEELATRLSQAIAGGDEKAAAQVAAVLAQHHVALNVQLMEAWFPPGPIRLQVTVEDATSVLSSSSSAHVSLKIHPHCSIAALQDQVFSEFGFPPAVQRWVIGRCLCMPERSLASYGVSQDGDPAFLYLLSAPREVSGQSLQNSKMDRKLGLFPQSLGLPHDLQPSSSSLPSPSQPGWSCPSCTFINASNRPGCEMCSTQRPCAWDPLAAAST

Molecular target: Flag-TNFα (UniProt P01375)
Assay: co-IP; L929 cells given 100 ng/mL Flag-TNFα for the indicated times, with or without 30 min pretreatment with 10 μM Nec-1s or Nec-34; lysed in 0.5% Nonidet P-40 buffer; anti-Flag antibody-conjugated agarose; western blot; only the target purified

Binder | binding
B1 | binds
B2 | binds
